# In the supplement of paper PMC5355238:
# Where a name gives a salt, the structure may show the parent alone. The list shows a part of the results. Most entries show no effect beyond the scatter of the controls.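 Using flow cytometry, the assay measures the median γH2AX antibody signal in S-phase Reh cells (a human leukemia line). Each score is the number of standard deviations from the median difference of paired plate sets. Candidate hits scored above 2.5; compounds scoring below -2 lowered MK1775-induced damage.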
# System: Reh
# Assay: Z' of S-phase gammaH2AX difference (drug + MK1775 minus drug alone) (Z-score); higher = stronger synergistic S-phase DNA damage with MK1775
# Settings: MK1775 concentration 400 nM; first compound 10 µM; 4 h
row,SMILES,Z' of S-phase gammaH2AX difference (Z-score)
1,"CCCn1c(=O)c2c(ncn2C)n(CCC)c1=O [1,3-Dipropyl-7-methylxanthine] + C=CCn1c(=O)c2cnc(Nc3ccc(N4CCN(C)CC4)cc3)nc2n1-c1cccc(C(C)(C)O)n1 [MK1775]",inactive: 1.29
2,C[C@H]1C[C@H]2[C@@H]3CCC4=CC(=O)C=C[C@]4(C)[C@@]3(F)[C@@H](O)C[C@]2(C)[C@@]1(O)C(=O)CO [Betamethasone] + C=CCn1c(=O)c2cnc(Nc3ccc(N4CCN(C)CC4)cc3)nc2n1-c1cccc(C(C)(C)O)n1 [MK1775],inactive: 0.0768
3,Cc1ccc(Cl)c(Nc2ccccc2C(=O)O)c1Cl [Meclofenamic acid sodium] + C=CCn1c(=O)c2cnc(Nc3ccc(N4CCN(C)CC4)cc3)nc2n1-c1cccc(C(C)(C)O)n1 [MK1775],inactive: 2.11
4,COC(=O)C1=C(C)NC(C)=C(C(=O)OCCCN2CCC(c3ccccc3)(c3ccccc3)CC2)[C@H]1c1cccc([N+](=O)[O-])c1 [S-(+)-Niguldipine hydrochloride] + C=CCn1c(=O)c2cnc(Nc3ccc(N4CCN(C)CC4)cc3)nc2n1-c1cccc(C(C)(C)O)n1 [MK1775],inactive: -0.639
5,"CN(C)CCOc1ccc(/C(=C(/CCCl)c2ccccc2)c2ccccc2)cc1 [Toremifene Citrate (Fareston, Acapodene)] + C=CCn1c(=O)c2cnc(Nc3ccc(N4CCN(C)CC4)cc3)nc2n1-c1cccc(C(C)(C)O)n1 [MK1775]",inactive: 0.107
6,CC1=Nc2ccc(Cl)cc2S(=O)(=O)N1 [Diazoxide] + C=CCn1c(=O)c2cnc(Nc3ccc(N4CCN(C)CC4)cc3)nc2n1-c1cccc(C(C)(C)O)n1 [MK1775],inactive: -0.342
7,CCn1nc(C(=O)O)c(=O)c2cc3c(cc21)OCO3 [Cinoxacin] + C=CCn1c(=O)c2cnc(Nc3ccc(N4CCN(C)CC4)cc3)nc2n1-c1cccc(C(C)(C)O)n1 [MK1775],inactive: 0.11
8,CN1CCN(c2nc3cc(C(F)(F)F)ccc3n3cccc23)CC1 + C=CCn1c(=O)c2cnc(Nc3ccc(N4CCN(C)CC4)cc3)nc2n1-c1cccc(C(C)(C)O)n1 [MK1775],inactive: 0.842
9,COc1cc2nccc(Oc3ccc(NC(=O)C4(C(=O)Nc5ccc(F)cc5)CC4)cc3)c2cc1OC [XL-184 free base (Cabozantinib)] + C=CCn1c(=O)c2cnc(Nc3ccc(N4CCN(C)CC4)cc3)nc2n1-c1cccc(C(C)(C)O)n1 [MK1775],inactive: 0.178
10,CNC(=O)c1cc(COc2nnc(Nc3ccc(Cl)cc3)c3ccoc23)ccn1 [Telatinib (BAY 57-9352)] + C=CCn1c(=O)c2cnc(Nc3ccc(N4CCN(C)CC4)cc3)nc2n1-c1cccc(C(C)(C)O)n1 [MK1775],inactive: -0.199
11,OC[C@H]1O[C@@H](c2nc3cc(Cl)c(Cl)cc3[nH]2)[C@H](O)[C@@H]1O [D-ribofuranosylbenzimidazole] + C=CCn1c(=O)c2cnc(Nc3ccc(N4CCN(C)CC4)cc3)nc2n1-c1cccc(C(C)(C)O)n1 [MK1775],inactive: -0.0996
12,CC(COc1ccccc1)N(CCCl)Cc1ccccc1 (stereo not drawn) [Phenoxybenzamine hydrochloride] + C=CCn1c(=O)c2cnc(Nc3ccc(N4CCN(C)CC4)cc3)nc2n1-c1cccc(C(C)(C)O)n1 [MK1775],inactive: -0.177
13,Nc1ncn([C@@H]2O[C@H](CO)[C@@H](O)[C@H]2O)c(=O)n1 [Azacitidine (Vidaza)] + C=CCn1c(=O)c2cnc(Nc3ccc(N4CCN(C)CC4)cc3)nc2n1-c1cccc(C(C)(C)O)n1 [MK1775],inactive: -0.363
14,Nc1ncn([C@@H]2O[C@H](CO)[C@@H](O)[C@H]2O)c(=O)n1 [5-azacytidine] + C=CCn1c(=O)c2cnc(Nc3ccc(N4CCN(C)CC4)cc3)nc2n1-c1cccc(C(C)(C)O)n1 [MK1775],inactive: -0.254
15,CCCNC(C)C(=O)Nc1ccccc1C (stereo not drawn) [Prilocaine hydrochloride] + C=CCn1c(=O)c2cnc(Nc3ccc(N4CCN(C)CC4)cc3)nc2n1-c1cccc(C(C)(C)O)n1 [MK1775],inactive: -0.359
16,CNc1ncnc2c1ncn2[C@H]1C[C@H](OP(=O)(O)O)[C@@H](COP(=O)(O)O)O1 + C=CCn1c(=O)c2cnc(Nc3ccc(N4CCN(C)CC4)cc3)nc2n1-c1cccc(C(C)(C)O)n1 [MK1775],inactive: 0.524
17,O=C(Nc1ccc(OC(F)(F)F)cc1)c1sccc1NCc1ccnc2ccccc12 + C=CCn1c(=O)c2cnc(Nc3ccc(N4CCN(C)CC4)cc3)nc2n1-c1cccc(C(C)(C)O)n1 [MK1775],inactive: -0.157
18,CC(=O)c1ccc(S(=O)(=O)NC(=O)NC2CCCCC2)cc1 [Acetohexamide] + C=CCn1c(=O)c2cnc(Nc3ccc(N4CCN(C)CC4)cc3)nc2n1-c1cccc(C(C)(C)O)n1 [MK1775],inactive: 0.0267
19,CCSC(=N)N [S-Ethylisothiourea hydrobromide] + C=CCn1c(=O)c2cnc(Nc3ccc(N4CCN(C)CC4)cc3)nc2n1-c1cccc(C(C)(C)O)n1 [MK1775],inactive: 0.59
20,CCC(=O)N1CCN(C(=O)c2ccccc2)CC1 + C=CCn1c(=O)c2cnc(Nc3ccc(N4CCN(C)CC4)cc3)nc2n1-c1cccc(C(C)(C)O)n1 [MK1775],inactive: 0.687
21,CNC(=O)c1cc2c(cn1)[nH]c1ccccc12 [N-Methyl-beta-carboline-3-carboxamide] + C=CCn1c(=O)c2cnc(Nc3ccc(N4CCN(C)CC4)cc3)nc2n1-c1cccc(C(C)(C)O)n1 [MK1775],inactive: 0.00243
22,Cn1c(=O)c2nc[nH]c2n(C)c1=O [Theophylline] + C=CCn1c(=O)c2cnc(Nc3ccc(N4CCN(C)CC4)cc3)nc2n1-c1cccc(C(C)(C)O)n1 [MK1775],inactive: 0.211
23,c1ccc(C2CN3CCSC3=N2)cc1 (stereo not drawn) [Tetramisole hydrochloride] + C=CCn1c(=O)c2cnc(Nc3ccc(N4CCN(C)CC4)cc3)nc2n1-c1cccc(C(C)(C)O)n1 [MK1775],inactive: -1.9

# 2 records picked at random from those above, as already listed:
row,SMILES,Z' of S-phase gammaH2AX difference (Z-score)
5,"CN(C)CCOc1ccc(/C(=C(/CCCl)c2ccccc2)c2ccccc2)cc1 [Toremifene Citrate (Fareston, Acapodene)] + C=CCn1c(=O)c2cnc(Nc3ccc(N4CCN(C)CC4)cc3)nc2n1-c1cccc(C(C)(C)O)n1 [MK1775]",inactive: 0.107
11,OC[C@H]1O[C@@H](c2nc3cc(Cl)c(Cl)cc3[nH]2)[C@H](O)[C@@H]1O [D-ribofuranosylbenzimidazole] + C=CCn1c(=O)c2cnc(Nc3ccc(N4CCN(C)CC4)cc3)nc2n1-c1cccc(C(C)(C)O)n1 [MK1775],inactive: -0.0996
